In publication PMC10920880:
For at least one entry, the source does not settle the construct or the ends of the probe. For some of these results: Weaker means in comparison with the reference protein, sequence or condition of that experiment. For some of these results: The direction of at least one scale is not stated here.

Tests used:
[1] = target: Hfq:Y25D (distal face mutant) (Escherichia coli K12) (UniProt P0A6X3); assay: smFRET; conditions: sRNA (N13)-Hfq, smFRET: 10 mM Tris-HCl pH 7.5, 50 mM NaCl, 50 mM KCl, 4 mM Trolox, 0.01% Nikkol, 0.8% glucose, RNasin, oxygen scavenger, recombinant protein, label: tether 5' biotin, 3' Cy5
[2] = target: Hfq:Y25D (distal face mutant) (Escherichia coli K12) (UniProt P0A6X3); assay: competition (TTG ASO accessibility); conditions: 5 nM Y25D, no protection of the AAC motif, free mRNA 69 ± 3%; internal Cy5 after nt 35; EMSA: 1x TNK, 5% glycerol, 15 min RT, native 8% PAGE 1x TBE 4 C; recombinant protein

“GGACUCUAUCGAGUCCAACAACAACAACGACCUCGCGCCCAGGACGACACACUUUGGACAGGACACACAGGACACAGG / CCTGTGTCCTGTGTGTCCTGTCCAAAGTGTGTCGTCC [(AAC)4-N0-S6 mRNA on DNA tether]”: binds more weakly ([1]; annealing at no-Hfq level).
“GGACUCUAUCGAGUCCAACAACAACAACUCUACCAUCACCUAAGACCUCGCGCCCAGGACGACACACUUUGGACAGGACACACAGGACACAGG / CCTGTGTCCTGTGTGTCCTGTCCAAAGTGTGTCGTCC [(AAC)4-N15-S6 mRNA on DNA tether]”: binds more weakly [1].
“GGACUCUAUCGAGUCCAACAACAACAACAACAACCCCUGCAUCACCUAAACUUUACUCUACCAUCACCAGACCUCGCGCCCAGGACGACACACUUUGGACAGGACACACAGGACACAGG / CCTGTGTCCTGTGTGTCCTGTCCAAAGTGTGTCGTCC [(AAC)6-Cy5-N35-S6 mRNA on DNA tether]” was tested, and the binding signal (% mRNA accessible to TTG ASO) [2] was 67.
“GGACUCUAUCGAGUCCAACAACAACAACUCUACCAUCACCUAAACUUUACUCUACCAUCACCAGACCUCGCGCCCAGGACGACACACUUUGGACAGGACACACAGGACACAGG / CCTGTGTCCTGTGTGTCCTGTCCAAAGTGTGTCGTCC [(AAC)4-N35-S6 mRNA on DNA tether]”: binds more weakly [1].
